The source of these data is the supplement of paper PMC3334620.

Over roughly 33,000 sequences, “E-score (-0.5 to 0.5)” has its median near -8e-05; the highest 2% begin near 0.23. This is one part of the list.

For this test, the target named is T1, Nrg2 (UniProt P38082).
T1 sequence: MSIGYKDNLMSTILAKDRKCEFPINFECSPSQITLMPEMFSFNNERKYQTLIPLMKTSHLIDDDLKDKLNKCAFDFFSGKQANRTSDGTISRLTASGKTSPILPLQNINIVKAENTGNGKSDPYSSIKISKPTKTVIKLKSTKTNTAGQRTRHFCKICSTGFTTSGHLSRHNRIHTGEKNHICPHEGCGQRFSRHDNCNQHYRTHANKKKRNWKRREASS
Put plainly: PBM E-score (8-mer binding enrichment) (E-score (-0.5 to 0.5)); higher = stronger / more preferred TF binding. The conditions noted are these: protein concentration: 100 nM; construct: GST-full length. The method, boiled down: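 Universal all-10-mer Agilent arrays, fresh or stripped once, were converted to double-stranded form by primer extension. GST-tagged yeast transcription factors from PURExpress in vitro transcription/translation, full-length or DNA-binding domain only, were applied at about 100-200 nM and detected with fluorescent anti-GST. After masliner normalisation, the Universal PBM Analysis Suite scored each ungapped eight-base word together with its reverse complement by E-score.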
In the case of CAGGGACG, the “PBM E-score” value turned out to be 0.306. CGAATGGC: the “PBM E-score” value was 0.13.

Take TCGGCCAA: the “PBM E-score” value worked out at 0.0199. Take TCGTGCCA: the “PBM E-score” value was -0.0394. In the case of TAGCTCCA, the “PBM E-score” value was -0.118. Turning to CGAACCGA, the “PBM E-score” value is 0.136.

AGTGGCGG: the “PBM E-score” value is -0.0307. With CCCACTGC the figure was 0.14; with GGCCACGA, -0.0839; with CAGCCCAA, -0.0423.

On to CCACTTTC, for which the “PBM E-score” value was -0.102. With AATCACCA the figure was 0.112; with AACTAAAT, 0.0907. Under ACAGGCCC stands -0.223; under GTGGAGGA, -0.106. CTGACTGC: the “PBM E-score” value is -0.0266. With GGAAATTA the figure was 0.115; with AGCTGGTA, -0.0877. Take CTCAGTCA: the “PBM E-score” value is -0.0332. Take GACACGCC: the “PBM E-score” value is 0.004.

As for ACATCGAT, the “PBM E-score” value was 0.0579.

With ATTAGAGC, the “PBM E-score” value is 0.18.

On to TACTCAGA, for which the “PBM E-score” value was found to be 0.0952.

With ACTAAGGA, the “PBM E-score” value amounted to 0.0414. In the case of CGGATAGC, the “PBM E-score” value was -0.0568. Take TCGCCCGA: the “PBM E-score” value is -0.0729. Under GATTTGAA stands 0.0894; under CCGTCAAA, -0.129.

With GAGAGCCC, the “PBM E-score” value was -0.363. Consider ACAGTCTG, for which the “PBM E-score” value was -0.0563. Consider GAGCCAGA, for which the “PBM E-score” value is -0.143. On to AACTCGCT, for which the “PBM E-score” value was -0.0197. For the sequence CAAATTTC, the “PBM E-score” value is 0.0486. With TACGATAA the figure was 0.0265; with AGCTCGCA, 0.0522. For GACCACTC, the “PBM E-score” value is -0.0798. Turning to AGCATCAT, the “PBM E-score” value was -0.0702. In the case of ACATACCG, the “PBM E-score” value is -0.19. In the case of CTCGCGAA, the “PBM E-score” value was -0.00662. Turning to GCCTGATA, the “PBM E-score” value is -0.076. As to AAAGGAAG, the “PBM E-score” value was -0.0979. For GTACCTCA, the “PBM E-score” value was 0.0876. On to CTAGGCAC, for which the “PBM E-score” value was -0.162. Take GGTTAGTA: the “PBM E-score” value came out at 0.0325. Under AAAAGTAC stands 0.00544; under ACCCCTTG, 0.00362.

On to ACTAGTTC, for which the “PBM E-score” value is 0.0532.

On to CCAGATTA, for which the “PBM E-score” value stood at 0.0238. With ATGTTACA, the “PBM E-score” value amounted to 0.099. Regarding ATATACAG, the “PBM E-score” value was determined as 0.168. On to CTAGCAGC, for which the “PBM E-score” value is 0.0191. Consider CACTGTTC, for which the “PBM E-score” value was -0.0687. For the sequence TAAGTTCA, the “PBM E-score” value is -0.0818.

Take GCGAACGC: the “PBM E-score” value is -0.243. On to CAGCTTGC, for which the “PBM E-score” value is -0.0553. For GCAGTCTA, the “PBM E-score” value is -0.101. Regarding AGTTCGGG, the “PBM E-score” value is 0.171. For GCATCGTA, the “PBM E-score” value was -0.105.

On to CGCAGTAA, for which the “PBM E-score” value turned out to be 0.0692. In the case of GAAATTAC, the “PBM E-score” value worked out at 0.161.

As for GCAGCTAA, the “PBM E-score” value is 0.0815. For the sequence ATCTGCAG, the “PBM E-score” value is 0.108. With GAGAGCGC the figure was 0.059.

With CGCGACCG, the “PBM E-score” value was -0.0433. As for ACGCCTAT, the “PBM E-score” value is -0.0501. For the sequence CAAGCCGG, the “PBM E-score” value stood at 0.178. For TCGACTCA, the “PBM E-score” value is 0.196. On to AAGCTTTC, for which the “PBM E-score” value turned out to be 0.0799. With ATTTCCTA the figure was 0.0878; with TCAGCAAA, 0.0537; with ATCCGTCA, 0.134. With AAGTTTCT, the “PBM E-score” value worked out at 0.164.

Consider ACGGGCGG, for which the “PBM E-score” value was -0.211.

Regarding AGCATCGG, the “PBM E-score” value is -0.136. As to CGTTAGCA, the “PBM E-score” value amounted to 0.0603. With GGTTTCCA the figure was -0.138; with GACGAAAA, 0.171. Take CTTAGCCC: the “PBM E-score” value is -0.0969. Under AGGATCTG stands -0.221. Under AGCCGGCT stands -0.0683; under ACTGCTAC, 0.0334; under AGTTAGTA, 0.069. With GTTGTTAA the figure was 0.241; with GCTATAAA, -0.0103. For CTTAGCAC, the “PBM E-score” value was -0.0734. Under TATGGAGA stands 0.0835.
